One molecule from ChEMBL document CHEMBL1155219, “Rapid generation of a high quality lead for transforming growth factor-beta (TGF-beta) type I receptor (ALK5)” (J Med Chem, 2009) can be followed below.

The species entered for series [1] is Rattus norvegicus. To be noted: Han Wistar, in vivo, po, 5 umol/kg.
A short description of series [2]: Aqueous solubility in phosphate buffer of pH 7.4.
Series [3] relates to Rattus norvegicus. As to the kind of experiment: Clearance in Han Wistar rat at 5 umol/kg, po. To be noted: in vivo.

Values after ≈ are worked out from the molar mass of the structure shown.

By AUC is commonly meant concentration integrated over time. Read a low AUC as low exposure. A word on the solubility: it is how much of the substance goes into solution per volume. For the molecule `COc1cc(Nc2cc(Oc3cc(C)c(C)nc3-c3ccccn3)ccn2)cc(OC)c1OC`, the AUC in series [1] worked out at 0.15 µM·h. Besides, in series [2], the solubility was 52 µM (≈ 23.8 µg/mL). In series [3], this molecule yielded a CL of 20 mL/min/kg.
